Results are given in words; binding and its absence hold for the method and conditions named. In cells and extracts the contact can be indirect. A result given as binding can be weak or reduced; the word gives no strength.
Molecular target: OsSalT-cVenus (rice) (UniProt Q0JMY8)
Test: split reporter

Chains of the proteins cited; added tags and fusions are not shown. Lines headed by an entry give the natural chain unless they say otherwise; changes in a name come on top.
UniProt Q0JMY8: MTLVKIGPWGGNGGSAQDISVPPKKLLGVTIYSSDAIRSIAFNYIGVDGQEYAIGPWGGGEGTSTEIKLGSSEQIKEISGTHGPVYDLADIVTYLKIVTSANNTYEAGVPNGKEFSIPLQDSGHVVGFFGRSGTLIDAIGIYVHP
UniProt Q0JQF7: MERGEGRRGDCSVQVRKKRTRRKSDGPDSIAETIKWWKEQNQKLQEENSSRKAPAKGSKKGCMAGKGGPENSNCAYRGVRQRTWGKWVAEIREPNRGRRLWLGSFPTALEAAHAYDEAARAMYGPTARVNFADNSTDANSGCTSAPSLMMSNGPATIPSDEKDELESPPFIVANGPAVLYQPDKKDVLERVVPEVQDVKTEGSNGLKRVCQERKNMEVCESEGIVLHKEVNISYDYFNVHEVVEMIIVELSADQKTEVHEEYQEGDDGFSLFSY

Row | Substance | binding
1 | OsDREB2A-nVenus (from UniProt Q0JQF7 1-274) | binds
2 | OsNAC1-nVenus (from UniProt Q8H0I5) | binds
